The supplement of paper PMC10060354, “Discovery of a small molecule ligand of FRS2 that inhibits invasion and tumor growth” (Cellular Oncology, 2022)
Many values rest on one well or one pass, so single values are uncertain.

Protein sequences, listed by entry. Tags and fused reporters are not part of them. Lines headed by an entry give the natural chain unless they say otherwise; changes in a name come on top.
UniProt P19447: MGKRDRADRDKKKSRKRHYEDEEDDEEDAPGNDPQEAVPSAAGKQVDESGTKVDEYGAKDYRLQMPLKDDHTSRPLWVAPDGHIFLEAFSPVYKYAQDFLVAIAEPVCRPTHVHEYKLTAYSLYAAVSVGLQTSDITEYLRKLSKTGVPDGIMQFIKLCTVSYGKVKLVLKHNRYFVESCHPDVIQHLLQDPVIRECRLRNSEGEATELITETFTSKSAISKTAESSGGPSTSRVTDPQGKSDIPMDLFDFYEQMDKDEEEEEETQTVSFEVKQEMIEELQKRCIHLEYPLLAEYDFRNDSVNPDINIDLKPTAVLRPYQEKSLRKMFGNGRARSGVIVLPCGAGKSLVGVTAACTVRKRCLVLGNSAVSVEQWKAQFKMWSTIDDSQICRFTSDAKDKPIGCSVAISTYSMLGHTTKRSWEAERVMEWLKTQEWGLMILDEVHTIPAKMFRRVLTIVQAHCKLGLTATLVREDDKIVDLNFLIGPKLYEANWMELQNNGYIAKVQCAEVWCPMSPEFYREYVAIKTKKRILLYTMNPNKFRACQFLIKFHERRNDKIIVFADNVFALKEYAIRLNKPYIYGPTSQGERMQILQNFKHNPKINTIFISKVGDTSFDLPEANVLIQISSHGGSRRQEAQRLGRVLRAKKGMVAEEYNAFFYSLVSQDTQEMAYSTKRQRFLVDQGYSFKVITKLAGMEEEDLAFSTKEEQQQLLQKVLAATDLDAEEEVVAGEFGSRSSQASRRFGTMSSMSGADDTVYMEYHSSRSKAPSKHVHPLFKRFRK
UniProt O14964, whole entry: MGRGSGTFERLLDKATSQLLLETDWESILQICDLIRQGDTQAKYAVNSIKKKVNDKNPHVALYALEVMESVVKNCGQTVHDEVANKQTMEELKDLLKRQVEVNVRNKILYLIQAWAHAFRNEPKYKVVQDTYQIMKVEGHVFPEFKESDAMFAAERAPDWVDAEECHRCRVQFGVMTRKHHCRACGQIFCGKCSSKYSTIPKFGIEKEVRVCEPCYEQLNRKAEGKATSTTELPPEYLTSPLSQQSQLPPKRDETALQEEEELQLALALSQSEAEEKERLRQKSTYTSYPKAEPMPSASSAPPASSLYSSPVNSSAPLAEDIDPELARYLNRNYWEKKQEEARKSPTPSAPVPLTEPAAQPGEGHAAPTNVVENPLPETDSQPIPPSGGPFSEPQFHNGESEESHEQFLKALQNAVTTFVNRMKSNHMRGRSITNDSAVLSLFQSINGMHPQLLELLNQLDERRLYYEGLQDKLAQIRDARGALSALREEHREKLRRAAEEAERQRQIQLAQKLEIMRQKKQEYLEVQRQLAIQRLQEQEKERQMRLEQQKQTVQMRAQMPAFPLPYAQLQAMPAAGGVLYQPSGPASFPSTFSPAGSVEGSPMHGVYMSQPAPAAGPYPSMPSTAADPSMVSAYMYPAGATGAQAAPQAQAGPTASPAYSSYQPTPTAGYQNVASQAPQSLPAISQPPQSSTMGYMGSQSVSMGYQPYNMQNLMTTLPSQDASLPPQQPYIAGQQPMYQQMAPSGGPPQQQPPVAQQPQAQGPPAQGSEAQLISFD
UniProt P48739: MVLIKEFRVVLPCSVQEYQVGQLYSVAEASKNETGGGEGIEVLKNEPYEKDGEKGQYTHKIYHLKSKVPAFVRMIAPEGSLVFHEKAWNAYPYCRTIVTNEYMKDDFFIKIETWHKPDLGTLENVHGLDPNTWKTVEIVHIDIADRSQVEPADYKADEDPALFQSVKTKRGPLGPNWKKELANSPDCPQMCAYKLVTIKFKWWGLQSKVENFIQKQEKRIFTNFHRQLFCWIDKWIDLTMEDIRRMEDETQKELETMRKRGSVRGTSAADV
UniProt O43719: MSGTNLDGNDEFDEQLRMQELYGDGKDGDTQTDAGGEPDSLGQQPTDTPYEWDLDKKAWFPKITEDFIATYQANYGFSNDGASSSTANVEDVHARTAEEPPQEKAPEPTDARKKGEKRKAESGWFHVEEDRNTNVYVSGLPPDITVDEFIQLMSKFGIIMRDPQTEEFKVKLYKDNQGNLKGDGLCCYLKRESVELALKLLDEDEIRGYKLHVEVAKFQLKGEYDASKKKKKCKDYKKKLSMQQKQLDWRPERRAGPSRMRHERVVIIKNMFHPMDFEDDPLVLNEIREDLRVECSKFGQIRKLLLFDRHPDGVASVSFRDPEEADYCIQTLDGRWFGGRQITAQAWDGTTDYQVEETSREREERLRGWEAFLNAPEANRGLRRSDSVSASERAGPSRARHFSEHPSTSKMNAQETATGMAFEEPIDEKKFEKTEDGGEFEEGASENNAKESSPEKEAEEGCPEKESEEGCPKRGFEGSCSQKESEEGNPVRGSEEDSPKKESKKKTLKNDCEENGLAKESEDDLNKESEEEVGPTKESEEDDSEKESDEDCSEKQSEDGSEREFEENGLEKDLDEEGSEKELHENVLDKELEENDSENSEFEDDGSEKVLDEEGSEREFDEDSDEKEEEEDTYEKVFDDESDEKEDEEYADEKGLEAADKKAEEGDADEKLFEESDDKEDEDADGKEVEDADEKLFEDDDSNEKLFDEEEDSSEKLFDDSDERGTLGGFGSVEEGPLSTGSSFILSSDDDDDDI
UniProt O15121: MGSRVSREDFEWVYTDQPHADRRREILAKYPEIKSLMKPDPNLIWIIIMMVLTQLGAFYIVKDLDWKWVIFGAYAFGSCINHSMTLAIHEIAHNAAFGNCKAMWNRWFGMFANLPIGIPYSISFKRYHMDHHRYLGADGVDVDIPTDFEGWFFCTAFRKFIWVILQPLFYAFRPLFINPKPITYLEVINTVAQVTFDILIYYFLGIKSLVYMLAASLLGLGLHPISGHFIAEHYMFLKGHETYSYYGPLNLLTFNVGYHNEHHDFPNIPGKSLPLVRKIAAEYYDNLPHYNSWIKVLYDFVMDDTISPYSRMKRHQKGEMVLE
UniProt Q96RQ1: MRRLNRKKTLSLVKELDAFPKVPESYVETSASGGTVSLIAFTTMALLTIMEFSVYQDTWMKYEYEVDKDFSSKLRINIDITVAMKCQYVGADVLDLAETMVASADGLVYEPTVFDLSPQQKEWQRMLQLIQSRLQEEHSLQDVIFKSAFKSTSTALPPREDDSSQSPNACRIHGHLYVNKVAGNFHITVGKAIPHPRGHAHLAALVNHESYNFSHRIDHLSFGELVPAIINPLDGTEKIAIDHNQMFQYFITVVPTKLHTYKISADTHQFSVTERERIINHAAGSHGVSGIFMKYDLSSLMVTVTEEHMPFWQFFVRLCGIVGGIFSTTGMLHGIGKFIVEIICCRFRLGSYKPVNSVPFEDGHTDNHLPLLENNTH
UniProt Q9Y4Y9: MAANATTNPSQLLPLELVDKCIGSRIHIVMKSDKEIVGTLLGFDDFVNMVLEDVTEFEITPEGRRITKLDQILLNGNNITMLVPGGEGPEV
UniProt Q6P1X6: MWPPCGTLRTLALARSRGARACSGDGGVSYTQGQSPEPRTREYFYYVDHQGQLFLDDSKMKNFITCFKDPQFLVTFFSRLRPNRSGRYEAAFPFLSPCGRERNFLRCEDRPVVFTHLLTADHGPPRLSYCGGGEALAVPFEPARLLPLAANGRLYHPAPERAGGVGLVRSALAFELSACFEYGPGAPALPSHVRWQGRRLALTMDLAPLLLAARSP
UniProt Q9H2P9: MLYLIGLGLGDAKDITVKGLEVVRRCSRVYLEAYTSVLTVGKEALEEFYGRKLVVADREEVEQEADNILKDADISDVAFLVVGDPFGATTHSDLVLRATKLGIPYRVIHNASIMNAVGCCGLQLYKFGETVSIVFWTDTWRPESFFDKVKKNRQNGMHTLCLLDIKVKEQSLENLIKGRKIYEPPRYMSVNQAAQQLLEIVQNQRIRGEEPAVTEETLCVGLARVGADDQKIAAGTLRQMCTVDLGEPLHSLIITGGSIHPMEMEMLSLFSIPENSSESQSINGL
UniProt Q5SQI0: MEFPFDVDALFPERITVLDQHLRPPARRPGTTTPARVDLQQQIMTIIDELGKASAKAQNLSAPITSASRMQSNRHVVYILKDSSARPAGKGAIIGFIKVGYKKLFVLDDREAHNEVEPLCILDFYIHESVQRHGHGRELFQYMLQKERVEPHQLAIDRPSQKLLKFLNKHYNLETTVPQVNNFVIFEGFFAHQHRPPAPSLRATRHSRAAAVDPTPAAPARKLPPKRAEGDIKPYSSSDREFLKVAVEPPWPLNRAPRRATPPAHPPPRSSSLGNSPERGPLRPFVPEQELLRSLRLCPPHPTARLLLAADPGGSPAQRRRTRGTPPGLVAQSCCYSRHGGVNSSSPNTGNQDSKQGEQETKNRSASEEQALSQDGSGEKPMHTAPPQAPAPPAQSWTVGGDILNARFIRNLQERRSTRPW
UniProt Q00169: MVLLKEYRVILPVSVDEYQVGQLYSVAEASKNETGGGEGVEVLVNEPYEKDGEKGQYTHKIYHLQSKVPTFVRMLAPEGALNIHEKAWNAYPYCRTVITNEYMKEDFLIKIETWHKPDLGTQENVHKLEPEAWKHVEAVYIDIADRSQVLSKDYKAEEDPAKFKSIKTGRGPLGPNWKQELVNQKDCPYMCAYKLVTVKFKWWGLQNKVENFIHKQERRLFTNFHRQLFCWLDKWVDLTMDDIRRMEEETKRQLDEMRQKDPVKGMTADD
UniProt Q8IWV7: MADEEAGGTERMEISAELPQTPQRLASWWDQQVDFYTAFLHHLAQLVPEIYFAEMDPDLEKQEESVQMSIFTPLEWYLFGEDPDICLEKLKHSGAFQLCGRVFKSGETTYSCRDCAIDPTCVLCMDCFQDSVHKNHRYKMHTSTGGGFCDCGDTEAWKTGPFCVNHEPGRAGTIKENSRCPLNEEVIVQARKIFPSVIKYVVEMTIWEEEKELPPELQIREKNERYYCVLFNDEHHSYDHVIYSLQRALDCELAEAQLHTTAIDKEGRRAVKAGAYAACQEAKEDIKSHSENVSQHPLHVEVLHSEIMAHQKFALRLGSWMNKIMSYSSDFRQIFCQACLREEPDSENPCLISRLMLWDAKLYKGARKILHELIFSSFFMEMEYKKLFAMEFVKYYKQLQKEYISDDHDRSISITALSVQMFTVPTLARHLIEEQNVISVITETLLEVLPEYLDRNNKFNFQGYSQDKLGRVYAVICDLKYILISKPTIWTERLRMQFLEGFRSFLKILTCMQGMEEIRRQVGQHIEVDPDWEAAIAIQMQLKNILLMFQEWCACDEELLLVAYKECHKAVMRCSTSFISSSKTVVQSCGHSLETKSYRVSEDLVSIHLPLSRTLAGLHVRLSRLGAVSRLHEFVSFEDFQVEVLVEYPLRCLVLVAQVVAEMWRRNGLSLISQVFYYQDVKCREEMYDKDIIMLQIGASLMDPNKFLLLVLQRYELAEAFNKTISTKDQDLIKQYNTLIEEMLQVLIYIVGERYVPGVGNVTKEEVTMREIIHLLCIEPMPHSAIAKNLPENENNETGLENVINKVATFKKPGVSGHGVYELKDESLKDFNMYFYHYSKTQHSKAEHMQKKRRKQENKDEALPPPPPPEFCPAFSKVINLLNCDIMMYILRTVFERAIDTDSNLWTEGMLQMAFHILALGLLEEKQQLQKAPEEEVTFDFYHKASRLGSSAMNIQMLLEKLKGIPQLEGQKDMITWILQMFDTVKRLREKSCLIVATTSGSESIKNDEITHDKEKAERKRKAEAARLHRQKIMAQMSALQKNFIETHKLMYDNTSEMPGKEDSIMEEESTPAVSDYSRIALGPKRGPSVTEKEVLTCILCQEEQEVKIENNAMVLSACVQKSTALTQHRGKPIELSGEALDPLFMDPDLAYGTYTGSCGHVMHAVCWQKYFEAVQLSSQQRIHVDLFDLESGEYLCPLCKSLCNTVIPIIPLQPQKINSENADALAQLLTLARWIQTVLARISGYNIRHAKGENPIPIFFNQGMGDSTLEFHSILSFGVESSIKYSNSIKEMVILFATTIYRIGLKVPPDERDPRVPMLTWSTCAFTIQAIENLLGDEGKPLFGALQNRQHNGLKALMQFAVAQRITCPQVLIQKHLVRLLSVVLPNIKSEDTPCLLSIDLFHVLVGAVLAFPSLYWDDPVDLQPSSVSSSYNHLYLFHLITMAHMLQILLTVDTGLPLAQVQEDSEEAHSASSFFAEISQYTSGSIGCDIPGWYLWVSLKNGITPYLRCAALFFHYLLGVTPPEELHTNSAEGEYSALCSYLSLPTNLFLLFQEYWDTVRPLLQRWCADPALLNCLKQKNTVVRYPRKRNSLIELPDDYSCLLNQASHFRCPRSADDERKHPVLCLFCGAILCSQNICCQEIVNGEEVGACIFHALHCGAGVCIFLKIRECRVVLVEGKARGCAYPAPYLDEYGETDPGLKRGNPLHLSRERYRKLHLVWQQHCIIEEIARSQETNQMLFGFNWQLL
UniProt Q8WUH1: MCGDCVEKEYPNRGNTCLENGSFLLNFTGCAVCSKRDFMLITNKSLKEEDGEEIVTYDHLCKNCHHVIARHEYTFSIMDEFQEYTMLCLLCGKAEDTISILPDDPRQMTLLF
UniProt O60613, whole entry: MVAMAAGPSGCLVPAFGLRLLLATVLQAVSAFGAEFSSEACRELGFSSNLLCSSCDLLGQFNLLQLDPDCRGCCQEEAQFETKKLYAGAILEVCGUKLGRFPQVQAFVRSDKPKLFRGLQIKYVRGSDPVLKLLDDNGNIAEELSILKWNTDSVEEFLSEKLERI

Compound: [O-][N+](C(C1=C(C(O)=C2)NC(C(C=C3)=CC=C3Cl)C4C1C=CC4)=C2Cl)=O
Test: melting temperature shift (compound 7 minus DMSO); higher = compound stabilises the protein
Settings: 10 µM
Method: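 Thermal proteome profiling (TMT mass spectrometry) in intact DAOY medulloblastoma cells or DAOY lysates treated with 10 µM compound 7 or DMSO, heated at 10 temperatures from 40.5 to 73.8 °C for 3 min. Melting curves were fitted with the Bioconductor TPP package, and the melting point difference between compound and vehicle is reported per protein (single curve per condition).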

[1] = system: DAOY cell lysate, treatment time: 20 min, 4 °C
[2] = system: intact DAOY cells, treatment time: 90 min, 37 °C

Row | Target | melting temperature shift [1] | melting temperature shift [2]
1 | TRMT2A (UniProt Q8IZ69) | -1.44 °C | -2.58 °C
2 | ERCC3 (UniProt P19447) | -0.682 °C | -3.01 °C
3 | HGS (UniProt O14964) | -0.0684 °C | -0.287 °C
4 | UniProt P12694 | -0.263 °C | –
5 | TRIM47 (UniProt Q96LD4) | -0.85 °C | 1.12 °C
6 | AHNAK2 (UniProt Q8IVF2) | 0.889 °C | 0.157 °C
7 | RPL26L1 (UniProt Q9UNX3) | 1.37 °C | -0.993 °C
8 | VKORC1 (UniProt Q9BQB6) | 3.02 °C | 3.32 °C
9 | UniProt Q13905 | -0.352 °C | –
10 | ZNF622 (UniProt Q969S3) | 0.173 °C | -1.01 °C
11 | SHKBP1 (UniProt Q8TBC3) | 1.36 °C | –
12 | B2M (UniProt P61769) | 1.71 °C | –
13 | BIRC6 (UniProt Q9NR09) | -0.484 °C | -0.418 °C
14 | FYCO1 (UniProt Q9BQS8) | -0.3 °C | -0.0945 °C
15 | PITPNB (UniProt P48739) | -0.562 °C | 0.274 °C
16 | UniProt O00214 | 0.791 °C | 1.51 °C
17 | CSDE1 (UniProt O75534) | -0.46 °C | -0.212 °C
18 | HTATSF1 (UniProt O43719) | -0.337 °C | -0.733 °C
19 | NEDD4L (UniProt Q96PU5) | 0.253 °C | 0.972 °C
20 | UniProt P0C0S5 | – | -0.686 °C
21 | DEGS1 (UniProt O15121) | -1.19 °C | –
22 | WDR45B (UniProt Q5MNZ6) | -0.58 °C | 2.24 °C
23 | RELA (UniProt Q04206) | 0.273 °C | 0.545 °C
24 | ERGIC2 (UniProt Q96RQ1) | 0.516 °C | -2.59 °C
25 | LSM5 (UniProt Q9Y4Y9) | -1.24 °C | 0.537 °C
26 | UniProt P47897 | -1.1 °C | -0.771 °C
27 | ABHD11 (UniProt Q8NFV4) | 1.29 °C | 0.367 °C
28 | UniProt Q53ET0 | -0.605 °C | 2.9 °C

Row | Target | melting temperature shift [1] | melting temperature shift [2]
29 | UniProt Q5SRD1 | – | -2.64 °C
30 | EXOC8 (UniProt Q8IYI6) | 0.107 °C | -0.706 °C
31 | MVD (UniProt P53602) | -1.51 °C | 0.41 °C
32 | C8ORF82 (UniProt Q6P1X6) | -0.407 °C | -0.325 °C
33 | PIR (UniProt O00625) | -0.393 °C | 0.748 °C
34 | DPH5 (UniProt Q9H2P9) | -0.327 °C | -0.387 °C
35 | UniProt Q5SQI0 | -2.51 °C | –
36 | ARNT (UniProt P27540) | – | -0.882 °C
37 | RBMS2 (UniProt Q15434) | 0.552 °C | -0.0191 °C
38 | RPL17 (UniProt P18621) | 0.458 °C | -0.673 °C
39 | ALDOA (UniProt P04075) | 0.325 °C | 0.573 °C
40 | PITPNA (UniProt Q00169) | -2.03 °C | 0.489 °C
41 | HPS5 (UniProt Q9UPZ3) | -1.09 °C | 0.282 °C
42 | ORC5 (UniProt O43913) | -1.72 °C | -1.12 °C
43 | UBR1 (UniProt Q8IWV7) | -0.523 °C | 0.416 °C
44 | ARMC8 (UniProt Q8IUR7) | -0.71 °C | 0.118 °C
45 | ZDHHC13 (UniProt Q8IUH4) | 0.856 °C | –
46 | UniProt Q5JXB2 | – | -0.379 °C
47 | UniProt P27361 | 0.126 °C | -0.204 °C
48 | MRPL45 (UniProt Q9BRJ2) | -0.191 °C | -0.215 °C
49 | OSBPL2 (UniProt Q9H1P3) | -1.91 °C | –
50 | NSUN6 (UniProt Q8TEA1) | -0.449 °C | 0.908 °C
51 | CHURC1 (UniProt Q8WUH1) | 0.753 °C | 0.509 °C
52 | UniProt Q9Y536 | – | 0.238 °C
53 | UniProt O60613 | 0.44 °C | 0.332 °C
54 | PPOX (UniProt P50336) | – | 0.502 °C
55 | CAT (UniProt P04040) | 1.06 °C | -0.412 °C

Complete entries as entered above.
EXOC8 (UniProt Q8IYI6) is listed with melting temperature shift [1] = 0.107 °C; melting temperature shift [2] = -0.706 °C
ARMC8 (UniProt Q8IUR7) is listed with melting temperature shift [1] = -0.71 °C; melting temperature shift [2] = 0.118 °C
ARNT (UniProt P27540) is listed with melting temperature shift [2] = -0.882 °C
PIR (UniProt O00625) is listed with melting temperature shift [1] = -0.393 °C; melting temperature shift [2] = 0.748 °C
